Measured values as given in patent US12465609B2, “Methods of treating patients suffering from a disease condition or disorder that is associated with an increased glutamate level” (veriNOS operations GmbH, priority 2022, dated 2025).

Assay: In vitro reverse microdialysis as a model for local administration
Conditions: for concentration in the immersion solution: perfusion Ronopterin 20 mg/mL, 1 μl/min, 20 kDa catheter, 120 to 180 minutes (FIG. 13D)

Compound	measured concentration in immersion solution relative to IC50 value (FIG. 13D)	concentration in the immersion solution
CC(O)C(O)C1=Nc2c(N)nc(N)nc2NC1 [VAS3384, 4-Amino-(6R,S)-7,8-dihydro-L-biopterin]	about 4 times	> 80 µmol/L
C[C@H](O)[C@H](O)C1CNc2nc(N)nc(N)c2N1 (mixture of isomers) [Ronopterin, 4-Amino-(6R,S)-5,6,7,8-tetrahydro-L-biopterin]	–	more than 30 μmol/l
